Not every detail of the peptide structures is certain; ends, links or a residue may be inferred. Non-standard residues stand in square brackets, D forms with d. Residues, ends and D or L forms follow the SMILES beside them. *: point of attachment. sY = N[C@@H](Cc1ccc(OS(=O)(=O)O)cc1)C(=O)O; Benzoyl(2-COOH) = O=C(O)c1ccccc1C(=O)*
Assays:
gallbladder = type: in vivo, guinea pig
Description: This test was in accordance with the method of G. Bertaccini et al. [Br. J. Pharmacol., 34, 291-310 (1968)].
Male Hartley guinea pigs (weighing 400-600 g) was anesthetized with urethane and fixed at the supine position. After laparotomy, the top of the gallbladder was clamped with a Serre-fine which was connected to a FD pickup (model: SB-IT, NIHON KOHDEN KOGYO Co., Ltd.), and the contraction was recorded on a recorder (model: PJB-3012, made by the above company) through a preamplifier (model: RUP-25, made by the above company). A standard solution and the invented peptide solutions were injected into the jugular vein, and the relative potency was determined from the peak height of the gallbladder contraction.

[1] = system: pancreatic external secretion; experiment: Acceleration of pancreatic external secretion (method of Dockray), i.v. in rats, compared with CCK-8; type: in vivo, rat; settings: male Wistar rats, 30 minutes after administration
Description: This test was conducted in accordance with the method of Dockray [J. Physiol., 225, 679-692 (1972)]. Male Wistar rats (weighing about 280 g) were deprived for 24 hours and under anesthesia the gastric pylorus and the duodenal side end of the common hepatic duct were ligated. A canula for collection of pancreatic juice was inserted into the duct in the retrograde fashion. The bile was led into the duodenum. Varying concentrations of the control solution (CCK-8 solution) and solutions of the invented peptides in a volume of 50 μl were administered intravenously every one hour, thus determining the increment in the secretion rate of the pancreatic juice and protein during 30 minutes after administration, wherein the amount of the whole protein secreted was determined from the ultraviolet absorbance at 280 nm of the pancreatic juice secreted.

## CSCC[C@H](NC(=O)[C@H](Cc1c[nH]c2ccccc12)NC(=O)[C@@H](Cc1c[nH]c2ccccc12)NC(=O)[C@H](CCSC)NC(=O)[C@H](Cc1ccc(OS(=O)(=O)O)cc1)NC(=O)c1ccccc1C(=O)O)C(=O)N[C@@H](CC(=O)O)C(=O)N[C@@H](Cc1ccccc1)C(N)=O [Compound VI, Pht-Tyr(SO3 H)-Met-D-Trp-Trp-Met-Asp-Phe-NH2] ({Benzoyl(2-COOH)}-[sY]M[dW]WMDF-NH2)
gallbladder; guinea pig, compared with CCK-8
  Gallbladder contracting activity (in words): little activity
gallbladder; male Hartley guinea pigs, injection into jugular vein, from peak height of gallbladder contraction, CCK-8 = 100
  Gallbladder contracting activity, relative potency: < 1.0
[1]
  Increased amount of the pancreatic juice secreted (in words): comparable to that of CCK-8

From patent US4530836A, “Peptide” (Amano Pharmaceutical Co., Ltd., priority 1983, dated 1985)
